Laboratory results: PubChem BioAssay AID1259254 (NCATS, 2017)
Test: 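Genome-wide screen for genes that prevent DNA re-replication in cancer cells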 (primary screen). Cells: human HCT116 colorectal cancer cells. Reagent: single siRNA against human genes. Time to read-out: 3 days. Read-out: 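Imaged Hoechst DNA stain sorts each cell into a cycle phase by DNA amount; per plate, G2 fraction set to 0% for non-targeting and 100% for GMNN siRNA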. Direction: G2 robust z-score and G2 cells, % of GMNN control: higher = more G2 cells, more excess DNA replication; raw share of cells in G2: higher = larger share of cells with G2 DNA content. Hit rule: 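An siRNA counts as active if its G2 robust z-score lies at least 5 MADs above the screen median; here such calls match roughly 38% of GMNN control or more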.
The whole screen tested about 59,000 reagents; shown is a random part of them. Over the whole deposit, about 1,550 (2.6%) got an active call. 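G2 share is only a proxy for re-replication; each gene was hit by three separate siRNAs, and active genes were retested.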 Raw values are not corrected between plates. The numbers tell different reagents against one gene apart. The record does not give: the amount of reagent.

Gene | siRNA no. | G2 robust z-score | G2 cells, % of GMNN control | raw share of cells in G2 (%) | activity call
LOC440084 | 1 | 0.569 | 6.97 | 6.06 | inactive
LOC440084 | 2 | -0.459 | -0.263 | 3.03 | inactive
LOC440084 | 3 | 0.638 | 7.46 | 6.5 | inactive
PNKP | 1 | 4.88 | 37.3 | 17.2 | inactive
PNKP | 2 | -0.297 | 0.876 | 5.51 | inactive
PNKP | 3 | -0.369 | 0.371 | 3.8 | inactive
ADAM23 | 1 | 0.373 | 5.59 | 7.51 | inactive
ADAM23 | 2 | 1.67 | 14.7 | 10.1 | inactive
ADAM23 | 3 | -0.376 | 0.322 | 4.03 | inactive
LLPH | 1 | -0.268 | 1.08 | 2.73 | inactive
LLPH | 2 | 0.373 | 5.59 | 5.97 | inactive
LLPH | 3 | -0.992 | -4.01 | 2.27 | inactive
WNT7B | 1 | -0.706 | -2 | 4.24 | inactive
WNT7B | 2 | 1.1 | 10.7 | 8.15 | inactive
WNT7B | 3 | -0.765 | -2.42 | 2.49 | inactive
PFDN5 | 1 | -0.713 | -2.05 | 2.65 | inactive
PFDN5 | 2 | 2.37 | 19.7 | 14.1 | inactive
PFDN5 | 3 | 0.563 | 6.93 | 5.62 | inactive
LINC00636 | 1 | 2.53 | 20.8 | 11.2 | inactive
LINC00636 | 2 | -0.367 | 0.388 | 3.19 | inactive
LINC00636 | 3 | 1.4 | 12.8 | 7.16 | inactive
GRAMD2A | 1 | -0.199 | 1.57 | 4.17 | inactive
GRAMD2A | 2 | 1 | 10 | 6.32 | inactive
GRAMD2A | 3 | 0.786 | 8.49 | 5.45 | inactive
KCNA2 | 1 | 1.11 | 10.7 | 9.2 | inactive
KCNA2 | 2 | -0.958 | -3.77 | 3.51 | inactive
KCNA2 | 3 | -0.628 | -1.45 | 3.81 | inactive
POLR2J3 | 1 | 3.8 | 29.7 | 18.8 | inactive
POLR2J3 | 2 | 1.85 | 16 | 11.2 | inactive
POLR2J3 | 3 | 2.25 | 18.8 | 11.1 | inactive
ABHD10 | 1 | -0.871 | -3.16 | 3.31 | inactive
ABHD10 | 2 | -0.167 | 1.79 | 4.88 | inactive
ABHD10 | 3 | 3.22 | 25.6 | 11.3 | inactive
FBXO27 | 1 | -0.869 | -3.15 | 3.29 | inactive
FBXO27 | 2 | -0.721 | -2.1 | 4.69 | inactive
FBXO27 | 3 | 0.174 | 4.19 | 6.76 | inactive
NUSAP1 | 1 | 5.62 | 42.5 | 20.1 | active
NUSAP1 | 2 | -0.294 | 0.9 | 4.89 | inactive
NUSAP1 | 3 | -0.424 | -0.0126 | 3.25 | inactive
PHKG1 | 1 | -0.732 | -2.18 | 4.89 | inactive
PHKG1 | 2 | -0.44 | -0.125 | 3.98 | inactive
PHKG1 | 3 | -0.916 | -3.48 | 4.24 | inactive
TIGD7 | 1 | 1.34 | 12.4 | 11.4 | inactive
TIGD7 | 2 | 0.241 | 4.67 | 6.97 | inactive
TIGD7 | 3 | -0.718 | -2.09 | 3.69 | inactive
ZFP90 | 1 | -0.49 | -0.479 | 2.93 | inactive
ZFP90 | 2 | 3.91 | 30.5 | 13.7 | inactive
ZFP90 | 3 | 0.378 | 5.63 | 5.5 | inactive
TMCC1 | 1 | 0.75 | 8.25 | 6.26 | inactive
TMCC1 | 2 | 0.432 | 6.01 | 7.34 | inactive
TMCC1 | 3 | 1.79 | 15.6 | 10.6 | inactive
KANK4 | 1 | 0.176 | 4.21 | 5.11 | inactive
KANK4 | 2 | 1.66 | 14.6 | 7.87 | inactive
KANK4 | 3 | -0.913 | -3.46 | 1.67 | inactive
GJD3 | 1 | -0.101 | 2.26 | 3.87 | inactive
GJD3 | 2 | -0.369 | 0.374 | 3.3 | inactive
GJD3 | 3 | 0.0946 | 3.63 | 4.8 | inactive
C4A | 1 | 0.00841 | 3.03 | 6.72 | inactive
C4A | 2 | 0.849 | 8.94 | 7.36 | inactive
C4A | 3 | -0.703 | -1.98 | 2.75 | inactive
ERAP2 | 1 | 5.98 | 45.1 | 24.6 | active
ERAP2 | 2 | -0.166 | 1.8 | 5.07 | inactive
ERAP2 | 3 | 0.0631 | 3.41 | 5.53 | inactive
UBE2Q2P1 | 1 | 2.2 | 18.5 | 10.1 | inactive
UBE2Q2P1 | 2 | 9.08 | 66.8 | 32.5 | active
UBE2Q2P1 | 3 | 0.569 | 6.97 | 7.62 | inactive
DDX4 | 1 | -0.385 | 0.26 | 4.34 | inactive
DDX4 | 2 | -0.551 | -0.908 | 3.45 | inactive
DDX4 | 3 | 0.595 | 7.15 | 9.2 | inactive

Part of the list above, showing only “G2 cells, % of GMNN control”:
C4A #3 = -1.98
ERAP2 #1 = 45.1
ERAP2 #2 = 1.8
ERAP2 #3 = 3.41
UBE2Q2P1 #1 = 18.5
